Assay [1] deals with T1, CD86-Ig (UniProt P42082).
T1 sequence: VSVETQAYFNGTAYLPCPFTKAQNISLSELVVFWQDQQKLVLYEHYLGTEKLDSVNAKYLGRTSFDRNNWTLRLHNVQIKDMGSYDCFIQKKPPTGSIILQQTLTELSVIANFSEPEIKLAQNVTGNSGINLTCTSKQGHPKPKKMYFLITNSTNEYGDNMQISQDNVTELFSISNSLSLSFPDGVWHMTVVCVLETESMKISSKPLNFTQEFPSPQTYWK
The assay is described as follows: cell isolation assay.

Amino acid sequences for entries named in this document (tags omitted). Residues count along the entry.
UniProt Q9JHJ8, residues 47-277: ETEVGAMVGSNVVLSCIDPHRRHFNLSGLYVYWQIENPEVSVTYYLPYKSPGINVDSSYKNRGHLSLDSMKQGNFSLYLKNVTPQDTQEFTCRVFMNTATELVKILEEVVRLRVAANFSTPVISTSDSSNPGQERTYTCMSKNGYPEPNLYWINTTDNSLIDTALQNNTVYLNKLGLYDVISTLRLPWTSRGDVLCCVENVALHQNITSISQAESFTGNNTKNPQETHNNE
UniProt P31041, residues 20-218: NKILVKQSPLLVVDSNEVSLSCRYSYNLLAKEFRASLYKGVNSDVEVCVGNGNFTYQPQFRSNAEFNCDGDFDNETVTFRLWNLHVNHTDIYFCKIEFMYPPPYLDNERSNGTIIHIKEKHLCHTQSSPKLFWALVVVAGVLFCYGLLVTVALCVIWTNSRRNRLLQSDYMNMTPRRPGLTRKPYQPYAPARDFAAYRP

For assay [2], the target named is T1, CD86-Ig. The experiment in a line: co-IP.
Assay [3] addresses ICOSLG-Ig (UniProt Q9JHJ8). The assay is described as follows: co-IP.
The target of assay [4] is ICOSLG-Ig (UniProt Q9JHJ8). The assay is described as follows: cell isolation assay.

Results are given in words; binding and its absence hold for the method and conditions named. For some assays here: In cells and extracts the contact can be indirect. Some entries that bind do so weakly or less than the wild type.

In the case of “CD28 (from UniProt P31041 20-218) (receptor)”, the binding result in assay [1] was “binds”; in assay [2] it was “binds”; in assay [3], “no binding”.

B1: ICOS (receptor, UniProt Q9WVS0 21-200)
chain: EINGSADHRMFSFHNGGVQISCKYPETVQQLKMRLFREREVLCELTKTKGSGNAVSIKNPMLCLYHLSNNSVSFFLNNPDSSQGSYYFCSLSIFDPPPFQERNLSGGYLHIYESQLCCQLKLWLPVGCAAFVVVLLFGCILIIWFSKKKYGSSVHDPNSEYMFMAAVNTNKKSRLAGVTS
B1: the binding result in assay [4] is listed as “binds weakly”; in assay [3], “binds”.

The values are drawn from article doi:10.1101/2022.09.21.508809.
